Taken from: PubChem BioAssay AID743454 (Peter MacCallum Cancer Centre, 2014)

Test: 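Knock-downs lowering viability or raising caspase 3/7 activity in vorinostat-treated resistant cells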 (primary screen)
Cell system: human HCT116-VR colon cancer cells, selected for vorinostat resistance
Knock-down reagent: siRNA pool against human genes, 40 nM siRNA pool
Timing: vorinostat for 24 h, read-out about 72 h after transfection
Challenge: vorinostat at 2.5 µM final
Measured: 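Cell viability by CellTiter-Fluor and caspase 3/7 activity by luminescence, each scaled to mock wells per plate, duplicates averaged, then robust z-scored over all plates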
Scale: viability robust z-score: higher = more viable cells than screen typical; caspase robust z-score: higher = more caspase 3/7 activity than screen typical
Rule for the call: 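Hits are knock-downs in viability class RV1/RV2 or caspase class CA1/CA2, excluding ones that killed cells in the no-drug cell-count arm; hits then retested with single siRNAs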
This is a random part of about 18,000 reagents. Of all reagents, 450 (2.5%) got an active call. 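Single biological run; no consistent viability z cut-off exists, so the class columns, not z-scores, define the calls.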 Unmarked entries are inactive. No sequences are given here.

The first 7 entries, to show the layout:
gene symbol,viability hit class,caspase hit class,viability robust z-score,caspase robust z-score
ARHGAP22,no change,no change,1.25,-0.57
BBS7,no change,no change,-0.68,2.79
PIR,no change,no change,-2.49,4.31
GLO1,no change,no change,0.06,-1.16
ATG4B,no change,no change,-1.02,-1.03
LEFTY1,no change,no change,-0.48,-0.72
CSMD1,no change,no change,0.29,2.21

Main list, from the start:
gene symbol,viability hit class,caspase hit class,viability robust z-score,caspase robust z-score
ARHGAP22,no change,no change,1.25,-0.57
BBS7,no change,no change,-0.68,2.79
PIR,no change,no change,-2.49,4.31
GLO1,no change,no change,0.06,-1.16
ATG4B,no change,no change,-1.02,-1.03
LEFTY1,no change,no change,-0.48,-0.72
CSMD1,no change,no change,0.29,2.21
BCAS1,no change,no change,1.06,-0.4
DEFB103B,no change,no change,-1.03,0.02
ANO7,no change,no change,0.28,-0.8
SSUH2,no change,no change,-0.38,1.35
SASH1,no change,no change,0.15,-0.42
SHOC1,no change,no change,0.6,-0.48
FAM53A,no change,no change,-0.97,1.84
GTPBP3,no change,no change,1.06,-0.48
HSPH1,no change,no change,0.36,0.01
SIGLEC7,no change,no change,0.06,-0.43
SLC18A3,no change,no change,-0.74,-1.4
KRTAP5-6,no change,no change,-0.79,-0.35
CUZD1,no change,no change,0.47,-0.76
CDYL2,no change,no change,2.39,0.6
FGFR4,no change,no change,0.52,1.7
HOXC10,no change,no change,0.6,-0.57
GNB3,no change,no change,1.04,-0.76
WT1-AS,no change,no change,1.34,-0.17
PYGM,no change,no change,1.83,1
DIPK2A,no change,no change,0.5,1.2
RANBP10,no change,no change,0.54,-0.14
RAMP1,no change,no change,-1.12,-0.3
COX8A,no change,no change,0.9,-0.56
FNDC3B,no change,no change,0.04,0.12
ATP6V0C,no change,no change,0.26,-0.64
NECAB1,no change,no change,-0.17,0.91
PRR36,no change,no change,0.24,-0.27
PYGO2,no change,no change,-1.21,0.32
SEZ6L,no change,no change,-0.02,1.71
CEP350,no change,no change,0.61,-0.67
ACP4,no change,no change,0.48,0.46
EBAG9,no change,no change,0.82,-0.04
CCNI,no change,no change,0.05,2.11
LYPD4,no change,no change,1.21,-0.3
LCE1B,no change,no change,-0.97,-0.69
NEIL3,no change,no change,0.48,-0.24
KLHL9,no change,no change,0.44,-0.44
PEX19,no change,no change,0.3,-0.7
KEL,no change,no change,0.3,1.17
NR1H2,no change (active),CA2 (caspase activation),-2.3,9.84
HEY1,no change,no change,0.08,-0.68
ZNF112,no change,no change,-0.64,0.46
RPP14,no change,no change,0.2,-0.5
SLC30A10,no change,no change,-0.32,-0.3
SNN,no change,no change,-0.12,-0.8
DBN1,no change,no change,0.85,-0.8
PTGIS,no change,no change,-1.75,0.6
HORMAD1,no change,no change,-0.3,0.75
SHC3,no change,no change,-0.77,-0.24
DUSP28,no change,no change,1.08,4.56
